From patent publication US6338963B1, “Use of carbon monoxide dependent guanylyl cyclase modifiers to stimulate neuritogenesis” (NeoTherapeutics, Inc., priority 1994, dated 2002)
Counter-ions that a name gives are not always drawn. Marks after values point to notes of the source that are not given here.

Experiments:
Swiss Webster mice = test: Win-shift T-maze memory test, Swiss Webster mice; type: in vivo
Protocol: Male Swiss Webster mice six months (young adult) and eleven months (old) of age, obtained from the National Institute on Aging, were maintained in individual cages, on a […] light/dark cycle with continuous access to water. Food was limited so that the mice stabilized at 80% of free feeding weight. Mice were weighed and handled daily for one week. The win-shift model was run as described in the literature and consists of a T-maze in which the correct response alternates after each correct trial. The interval between trials is varied and allows for the determination of the longest period between trials that a subject can remember the correct response on the previous trial. This allows the measure of the duration of the memory trace. […] The reward goal box is alternated after each correct trial. Ten trials per mouse are run each day. […] The latency time to leave the start box is recorded as a measure of motivation, the running time (the time from leaving the start box to reaching the goal box) is recorded as a measure of performance, and the number of correct responses as a measure of memory.
The drugs used in this example are 4-((3-(1,6-dihydro-6-oxo-9-purin-9-yl)-1-oxopropyl)amino) benzoic acid (AIT-082), as an exemplary potassium salt, tacrine hydrochloride (tetrahydroaminoacridine, THA, Sigma Chemical Co., St. Louis, Mo.), and physostigmine, hemisulfate salt (PHY, Sigma Chemical Co., St. Louis, Mo.). The drugs were dissolved in saline and prepared fresh daily. All injections were made at a volume of 0.1 ml/10 grams body weight. When testing drug effects, intraperitoneal (i.p.) injections of AIT-082 or THA were made one hour prior to the start of testing. Due to its shorter duration of action, PHY was injected 30 minutes prior to testing. Control subjects receive a similar injection of saline (vehicle).
To determine the duration of the memory trace, subjects were administered drug or saline and 30 minutes (PHY) or 1 hour (AIT-082 or THA) later they were given a single reference run with the milk reward in both goal boxes. After the indicated inter-trial delay, subjects were returned to the start box and given the first test trial with the milk reward only in the goal box opposite to the one entered on the previous correct trial. The subjects were given 10 trials with the reward alternating only after correct responses.
To determine if tolerance to the biological effects of AIT-082 developed, drug or saline was administered daily for 18 days prior to the testing in the standard win-shift paradigm.

C57BL/6 mice = test: Ethanol-induced working memory deficit (win-shift); type: in vivo
Protocol: Six month old male C57BL/6 mice were evaluated in the win-shift model in combination with treatment with ethanol, a non-specific memory suppressant, and AIT-082. Subjects were treated with saline (control) or AIT-082 (30 mg/kg. i.p.) 1 hour prior to testing. Ethanol was administered at a dose of 0.5 gm/kg i.p. ten minutes prior to testing.

[1] = Ethanol + AIT-082 30 mg/kg i.p.

O=C(CCn1cnc2c(=O)[nH]cnc21)Nc1ccc(C(=O)O)cc1 [AIT-082, N-4-carboxyphenyl-3-(6-oxohydropurin-9-yl)propanamide]
Win-shift Memory Test, Latency time (Swiss Webster mice; AIT-082 0.5 mg/kg): 1.95 s | Win-shift Memory Test, Running time (Swiss Webster mice; AIT-082 0.5 mg/kg): 2.20 s | Win-shift Memory Test, Latency time (Swiss Webster mice; AIT-082 30.0 mg/kg): 2.03 s | Win-shift Memory Test, Running time (Swiss Webster mice; AIT-082 30.0 mg/kg): 1.95 s | Latency time (C57BL/6 mice; [1]): 1.77 ± 0.27 s | Running time (C57BL/6 mice; [1]): 3.22 ± 0.61 s

CCO [Ethanol, ethanol, reference compound]
Latency time (C57BL/6 mice; Ethanol 0.5 gm/kg i.p.): 1.18 ± 0.10 s | Running time (C57BL/6 mice; Ethanol 0.5 gm/kg i.p.): 1.17 ± 0.08 s

Nc1c2c(nc3ccccc13)CCCC2 [THA, tacrine hydrochloride, reference compound]
Win-shift Memory Test, Latency time (Swiss Webster mice; THA 1.25 mg/kg): 8.22* seconds | Win-shift Memory Test, Running time (Swiss Webster mice; THA 1.25 mg/kg): 3.65* seconds

physostigmine, hemisulfate salt [reference compound]
Win-shift Memory Test, Running time (Swiss Webster mice; PHY 0.125 mg/kg): 2.65 s
